These results are taken from publication PMC5974179.

Chains of the proteins cited; added tags and fusions are not shown.
UniProt P08670: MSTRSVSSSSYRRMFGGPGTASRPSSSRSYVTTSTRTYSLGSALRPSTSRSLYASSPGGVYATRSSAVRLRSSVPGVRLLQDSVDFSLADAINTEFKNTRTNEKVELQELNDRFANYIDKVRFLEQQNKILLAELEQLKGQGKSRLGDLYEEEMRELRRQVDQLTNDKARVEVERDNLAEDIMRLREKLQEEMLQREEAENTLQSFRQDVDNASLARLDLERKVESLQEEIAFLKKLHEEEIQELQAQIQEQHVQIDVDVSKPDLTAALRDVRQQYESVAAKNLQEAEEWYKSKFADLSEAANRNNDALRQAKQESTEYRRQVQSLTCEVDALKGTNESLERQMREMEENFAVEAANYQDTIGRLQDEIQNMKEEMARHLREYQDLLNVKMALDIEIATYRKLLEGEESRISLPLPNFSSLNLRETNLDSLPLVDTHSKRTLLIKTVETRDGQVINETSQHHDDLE
UniProt Q05397: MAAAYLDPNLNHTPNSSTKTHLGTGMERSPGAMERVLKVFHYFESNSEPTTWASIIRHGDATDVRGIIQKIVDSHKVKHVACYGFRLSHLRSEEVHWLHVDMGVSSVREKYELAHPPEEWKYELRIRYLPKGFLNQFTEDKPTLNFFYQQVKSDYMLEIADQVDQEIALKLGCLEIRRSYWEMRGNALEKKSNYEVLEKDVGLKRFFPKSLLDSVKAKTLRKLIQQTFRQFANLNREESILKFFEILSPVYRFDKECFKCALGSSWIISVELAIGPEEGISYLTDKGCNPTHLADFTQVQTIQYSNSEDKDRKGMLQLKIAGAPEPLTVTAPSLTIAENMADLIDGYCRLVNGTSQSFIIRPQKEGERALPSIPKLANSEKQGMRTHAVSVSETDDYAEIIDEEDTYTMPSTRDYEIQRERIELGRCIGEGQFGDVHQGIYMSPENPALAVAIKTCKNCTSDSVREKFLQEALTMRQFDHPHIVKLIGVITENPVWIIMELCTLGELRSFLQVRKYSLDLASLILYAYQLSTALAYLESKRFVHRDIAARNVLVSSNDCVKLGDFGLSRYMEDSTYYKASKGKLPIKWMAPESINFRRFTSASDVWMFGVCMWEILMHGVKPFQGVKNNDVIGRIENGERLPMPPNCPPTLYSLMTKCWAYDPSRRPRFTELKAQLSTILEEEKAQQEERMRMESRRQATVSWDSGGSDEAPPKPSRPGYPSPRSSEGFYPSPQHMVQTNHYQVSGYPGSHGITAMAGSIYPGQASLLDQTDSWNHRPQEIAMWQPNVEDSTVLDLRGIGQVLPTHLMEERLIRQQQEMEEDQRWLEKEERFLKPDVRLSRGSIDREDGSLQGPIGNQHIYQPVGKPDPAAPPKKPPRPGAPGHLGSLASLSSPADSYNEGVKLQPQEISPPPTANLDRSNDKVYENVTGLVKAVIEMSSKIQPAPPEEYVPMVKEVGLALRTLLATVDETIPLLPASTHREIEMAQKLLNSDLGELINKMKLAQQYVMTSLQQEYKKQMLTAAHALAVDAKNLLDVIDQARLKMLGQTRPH

These are yes or no findings as the source states them, for the method shown. In cells and extracts the contact can be indirect. Some entries that bind do so weakly or less than the wild type.

Assay [1] deals with T1, Follistatin-like protein 1 (FSTL1) (human (endogenous in SW480)) (UniProt Q12841).
T1 sequence: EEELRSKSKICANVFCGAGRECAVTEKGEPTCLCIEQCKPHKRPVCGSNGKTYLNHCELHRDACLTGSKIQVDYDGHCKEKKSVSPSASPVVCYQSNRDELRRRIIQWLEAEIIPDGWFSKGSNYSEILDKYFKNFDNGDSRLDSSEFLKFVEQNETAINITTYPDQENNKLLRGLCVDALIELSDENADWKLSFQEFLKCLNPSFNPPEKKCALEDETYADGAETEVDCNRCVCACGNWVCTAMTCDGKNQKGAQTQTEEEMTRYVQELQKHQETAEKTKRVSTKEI
The experiment in a line: co-IP; protein extracts from SW480 cells (500 ug/sample); CoIP with antibodies against FSTL1 or VIM; western blot.

In assay [2] the target is VIM (human (endogenous in SW480)) (UniProt P08670). The assay is described as above.

As to “Focal adhesion kinase (FAK) (from UniProt Q05397 1-1052)”, the results for the binding result in assay [1] and in assay [2] were “no binding” and “binds”, respectively. For the substance VIM (from UniProt P08670 1-466), in assay [1], the binding result is “binds”.
